According to patent US12564191B2, “Pesticidal compounds” (priority 2020, dated 2026):
Some results were stated once for a whole list of compounds, not compound by compound.

Key:
Assay type in all cases: in vivo
[1] = tested on: Diamond back moth (Plutella xylostella); test: Diamond back moth (Plutella xylostella) cabbage leaf dip test; conditions: 500 ppm, 3rd instar larvae, 72 hours after treatment
Protocol: B.2. Diamond Back Moth (Plutella xylostella)
The active compound is dissolved at the desired concentration in a mixture of 1:1 (vol:vol) distilled water:acetone. Surfactant (Alkamuls® EL 620) is added at a rate of 0.1% (vol/vol). The test solution is prepared at the day of use.
Leaves of cabbage were dipped in test solution and air-dried. Treated leaves were placed in petri dish enlined with moist filter paper and inoculated with ten 3rd instar larvae. Mortality was recorded 72 hours after treatment. Feeding damages were also recorded using a scale of 0-100%.

[2] = tested on: Tobacco budworm (Heliothis virescens); test: Tobacco budworm (Heliothis virescens) microtiter diet test, egg and larval mortality; conditions: 2500 ppm; sprayed onto insect diet; assessed after 5 days
Protocol: B.5. Tobacco Budworm (Heliothis virescens)
For evaluating control of tobacco budworm (Heliothis virescens) the test unit consisted of 96-well-microtiter plates containing an insect diet and 15-25 H. virescens eggs.
The compounds were formulated using a solution containing 75% v/v water and 25% v/v DMSO. Different concentrations of formulated compounds were sprayed onto the insect diet at 10 μl, using a custom built micro atomizer, at two replications.
After application, microtiter plates were incubated at about 28±1° C. and about 80±5% relative humidity for 5 days. Egg and larval mortality was then visually assessed.

[3] = tested on: Yellow fever mosquito (Aedes aegypti); conditions: 2500 ppm; freshly hatched larvae in tap water; assessed after 2 days
Protocol: B.6. Yellow Fever Mosquito (Aedes aegypti)
For evaluating control of yellow fever mosquito (Aedes aegypti) the test unit consisted of 96-well-microtiter plates containing 200 μl of tap water per well and 5-15 freshly hatched A. aegypti larvae. The active compounds were formulated using a solution containing 75% (v/v) water and 25% (v/v) DMSO. Different concentrations of formulated compounds or mixtures were sprayed onto the insect diet at 2.5 μl, using a custom built micro atomizer, at two replications.
After application, microtiter plates were incubated at 28+1° C., 80+5% RH for 2 days. Larval mortality was then visually assessed.

[4] = tested on: Southern Armyworm (Spodoptera eridania), 2nd Instar Larvae; test: Southern armyworm 2nd instar larvae on sprayed lima bean plants; conditions: 500 ppm, 4 days after treatment
Protocol: B.4. Southern Armyworm (Spodoptera eridania), 2nd Instar Larvae
The active compounds were formulated in cyclohexanone as a 10,000 ppm solution supplied in tubes. The tubes were inserted into an automated electrostatic sprayer equipped with an atomizing nozzle and they served as stock solutions for which lower dilutions were made in 50% acetone:50% water (v/v). A nonionic surfactant (Kinetic®) was included in the solution at a volume of 0.01% (v/v).
Lima bean plants (variety Sieva) were grown 2 plants to a pot and selected for treatment at the 1st true leaf stage. Test solutions were sprayed onto the foliage by an automated electrostatic plant sprayer equipped with an atomizing spray nozzle. The plants were dried in the sprayer fume hood and then removed from the sprayer. Each pot was placed into perforated plastic bags with a zip closure. About 10 to 11 armyworm larvae were placed into the bag and the bags zipped closed. Test plants were maintained in a growth room at about 25° C. and about 20-40% relative humidity for 4 days, avoiding direct exposure to fluorescent light (24 hour photoperiod) to prevent trapping of heat inside the bags. Mortality and reduced feeding were assessed 4 days after treatment, compared to untreated control plants.

[5] = tested on: Orchid thrips (Dichromothrips corbetti); test: Orchid thrips (Dichromothrips corbetti) floral-immersion test; conditions: 500 ppm, adult thrips, 72 hours after treatment
Protocol: B.7. Orchid Thrips (Dichromothrips corbetti)
Dichromothrips corbetti adults used for bioassay were obtained from a colony maintained continuously under laboratory conditions. For testing purposes, the test compound is diluted in a 1:1 mixture of acetone:water (vol:vol), plus Kinetic® HV at a rate of 0.01% v/v.
Thrips potency of each compound was evaluated by using a floral-immersion technique. All petals of individual, intact orchid flowers were dipped into treatment solution and allowed to dry in Petri dishes. Treated petals were placed into individual re-sealable plastic along with about 20 adult thrips. All test arenas were held under continuous light and a temperature of about 28° C. for duration of the assay. After 3 days, the numbers of live thrips were counted on each petal. The percent mortality was recorded 72 hours after treatment.

CC(C)c1ccccc1NC(=S)NN=Cc1ccc(-c2nccc(NC(=O)c3ccc(C(F)(F)F)cc3)n2)cc1 [Example C-1]
over 75%: mortality in comparison with untreated controls [1] | egg and larval mortality in comparison with untreated controls [2]

CC(C)c1ccccc1N1C(=O)CSC1=NN=Cc1ccc(-c2nccc(NC(=O)c3ccc(C(F)(F)F)cc3)n2)cc1 [Example C-2]
over 75%: mortality in comparison with untreated controls [1] | egg and larval mortality in comparison with untreated controls [2] | larval mortality in comparison with untreated controls [3]

Cc1ccc(C(C)C)c(NC(=S)NN=Cc2ccc(-c3nccc(NC(=O)c4ccc(C(F)(F)F)cc4)n3)cc2)c1 [Example C-4]
over 75%: mortality in comparison with untreated controls [1] | mortality in comparison with untreated controls [4] | egg and larval mortality in comparison with untreated controls [2] | larval mortality in comparison with untreated controls [3]

CC(C)c1ccccc1NC(=S)NN=Cc1ccc(-c2cc(NC(=O)c3ccc(C(F)(F)F)cc3)cnn2)cc1 [Example C-6]
over 75%: mortality in comparison with untreated controls [1] | egg and larval mortality in comparison with untreated controls [2] | larval mortality in comparison with untreated controls [3] | mortality in comparison with untreated controls [5]

CO[C@@H]1[C@@H](OC)[C@H](C)O[C@@H](O/N=C/c2ccc(-c3cc(NC(=O)c4ccc(C(F)(F)F)cc4)cnn3)cc2)[C@@H]1OC [Example C-8]
over 75%: egg and larval mortality in comparison with untreated controls [2] | larval mortality in comparison with untreated controls [3]

CC(C)c1ccccc1N=C1SCC(=O)N1N=Cc1ccc(-c2cc(NC(=O)c3ccc(C(F)(F)F)cc3)cnn2)cc1 [Example C-11]
over 75%: mortality in comparison with untreated controls [1] | mortality in comparison with untreated controls [4] | egg and larval mortality in comparison with untreated controls [2] | mortality in comparison with untreated controls [5]

Cc1ccc(C(C)C)c(NC(=S)NN=Cc2ccc(-c3cc(NC(=O)c4ccc(C(F)(F)F)cc4)ncn3)cc2)c1 [Example C-14]
over 75%: mortality in comparison with untreated controls [1] | mortality in comparison with untreated controls [4] | egg and larval mortality in comparison with untreated controls [2] | mortality in comparison with untreated controls [5]

CC(C)c1ccccc1N=C1SCC(=O)N1N=Cc1ccc(-c2cc(NC(=O)c3ccc(C(F)(F)F)cc3)ncn2)cc1 [Example C-16]
over 75%: mortality in comparison with untreated controls [1] | mortality in comparison with untreated controls [5]

CO[C@@H]1[C@@H](OC)[C@H](C)O[C@@H](O/N=C/c2ccc(-c3cc(NC(=O)c4ccc(C(F)(F)F)cc4)ncn3)cc2)[C@@H]1OC [Example C-17]
over 75%: larval mortality in comparison with untreated controls [3]

CC(C)c1ccccc1NC(=S)NN=Cc1ccc(-c2cc(NCc3ccc(OC(F)(F)F)cc3)ncn2)cc1 [Example C-19]
over 75%: mortality in comparison with untreated controls [1] | mortality in comparison with untreated controls [4] | egg and larval mortality in comparison with untreated controls [2]

CC(C)c1ccccc1N1C(=O)CSC1=NN=Cc1ccc(-c2cc(NCc3ccc(OC(F)(F)F)cc3)ncn2)cc1 [Example C-20]
over 75%: mortality in comparison with untreated controls [1] | mortality in comparison with untreated controls [4] | egg and larval mortality in comparison with untreated controls [2] | larval mortality in comparison with untreated controls [3]

CC(C)c1ccccc1NC(=S)NN=Cc1ccc(-c2ccnc(NC(=O)c3ccc(OC(F)(F)F)cc3)c2)cc1 [Example C-32]
over 75%: mortality in comparison with untreated controls [1] | egg and larval mortality in comparison with untreated controls [2] | larval mortality in comparison with untreated controls [3]

CC(C)c1ccccc1N=C1SCC(=O)N1N=Cc1ccc(-c2cncc(NC(=O)c3ccc(OC(F)(F)F)cc3)c2)cc1 [Example C-33]
over 75%: mortality in comparison with untreated controls [1] | egg and larval mortality in comparison with untreated controls [2] | larval mortality in comparison with untreated controls [3] | mortality in comparison with untreated controls [5]

CC(C)c1ccccc1NC(=O)NN=Cc1ccc(-c2cncc(NC(=O)c3ccc(OC(F)(F)F)cc3)c2)cc1 [Example C-34]
over 75%: mortality in comparison with untreated controls [1] | egg and larval mortality in comparison with untreated controls [2] | larval mortality in comparison with untreated controls [3] | mortality in comparison with untreated controls [5]

CC(C)c1ccccc1N1C(=O)CSC1=NN=Cc1ccc(-c2cncc(NC(=O)c3ccc(OC(F)(F)F)cc3)c2)cc1 [Example C-35]
over 75%: mortality in comparison with untreated controls [1] | egg and larval mortality in comparison with untreated controls [2] | larval mortality in comparison with untreated controls [3] | mortality in comparison with untreated controls [5]

CC(C)c1ccccc1NC(=S)NN=Cc1ccc(-c2ccnc(NC(=O)c3ccc(OC(F)(F)F)cc3)c2)cc1 [Example C-36]
over 75%: mortality in comparison with untreated controls [5]

CC(C)c1ccccc1N=C1SCC(=O)N1N=Cc1ccc(-c2ccnc(NC(=O)c3ccc(OC(F)(F)F)cc3)c2)cc1 [Example C-38]
over 75%: mortality in comparison with untreated controls [1] | egg and larval mortality in comparison with untreated controls [2] | larval mortality in comparison with untreated controls [3] | mortality in comparison with untreated controls [5]

CO[C@@H]1[C@@H](OC)[C@H](C)O[C@@H](OC(=O)Nc2ccc(-c3cncc(NC(=O)c4ccc(OC(F)(F)F)cc4)c3)cc2)[C@@H]1OC [Example C-39]
over 75%: egg and larval mortality in comparison with untreated controls [2] | larval mortality in comparison with untreated controls [3]

CC(C)c1ccccc1NC(=S)NN=Cc1ccc(-c2cc(N=C(c3ccc(OC(F)(F)F)cc3)N(C)C)ncn2)cc1 [Example C-40]
over 75%: mortality in comparison with untreated controls [1] | egg and larval mortality in comparison with untreated controls [2] | larval mortality in comparison with untreated controls [3] | mortality in comparison with untreated controls [5]

CC(C)c1ccccc1N1C(=O)CSC1=NN=Cc1ccc(-c2ccnc(NC(=O)c3ccc(OC(F)(F)F)cc3)c2)cc1 [Example C-41]
over 75%: mortality in comparison with untreated controls [1] | egg and larval mortality in comparison with untreated controls [2] | larval mortality in comparison with untreated controls [3] | mortality in comparison with untreated controls [5]

CO[C@@H]1[C@@H](OC)[C@H](C)O[C@@H](OC(=O)Nc2ccc(-c3ccnc(NC(=O)c4ccc(OC(F)(F)F)cc4)c3)cc2)[C@@H]1OC [Example C-42]
over 75%: egg and larval mortality in comparison with untreated controls [2] | larval mortality in comparison with untreated controls [3]

CC(C)c1ccccc1NC(=S)NN=Cc1ccc(-c2cc(Nc3ccc(OC(F)(F)F)cc3)ncn2)cc1 [Example C-43]
over 75%: mortality in comparison with untreated controls [1] | egg and larval mortality in comparison with untreated controls [2] | larval mortality in comparison with untreated controls [3]

CC(C)c1ccccc1NC(=S)NN=Cc1ccc(-c2ccnc(NC(=N)c3ccc(OC(F)(F)F)cc3)c2)cc1 [Example C-44]
over 75%: mortality in comparison with untreated controls [1] | egg and larval mortality in comparison with untreated controls [2] | mortality in comparison with untreated controls [5]

CC(C)c1ccccc1NC(=O)NN=Cc1ccc(-c2ccnc(NC(=N)c3ccc(OC(F)(F)F)cc3)c2)cc1 [Example C-45]
over 75%: mortality in comparison with untreated controls [1] | egg and larval mortality in comparison with untreated controls [2] | larval mortality in comparison with untreated controls [3]

CC(C)c1ccccc1N1C(=O)CSC1=NN=Cc1ccc(-c2ccnc(NC(=N)c3ccc(OC(F)(F)F)cc3)c2)cc1 [Example C-46]
over 75%: mortality in comparison with untreated controls [1] | egg and larval mortality in comparison with untreated controls [2] | larval mortality in comparison with untreated controls [3] | mortality in comparison with untreated controls [5]
